± gives the standard deviation of the averaged measurements. This is a selection; strong and weak results do not stand in their true shares. Small differences around the control level are noise.
The targets below were run with Nc1ncnc2c1ncn2[C@@H]1O[C@H](COP(=O)(O)OP(=O)(O)OP(=O)(O)O)[C@@H](O)[C@H]1O [adenosine triphosphate] (assay: NP40-soluble protein abundance relative to vehicle (solubility fold change) (ratio); higher = more soluble protein in presence of ATP). Conditions: concentration: 0.1mM.
Method in brief: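 In three independent experiments, Jurkat crude lysate made by Dounce homogenisation was treated for 10 min at room temperature and then 3 min at 37 °C with eight concentrations ranging from 0.1 to 10 mM. It was then solubilised with 0.8% NP40 plus benzonase for 60 min at 4 °C and ultracentrifuged. The supernatant was TMT-labelled for LC-MS/MS, and each value is the fold change against the detergent-processed vehicle for the same replicate, using vsn-normalised intensities.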

Sequences of proteins named here, by UniProt entry; tags and fusion partners are left off. A change or cut given only in a name is not applied to a line headed by its entry.
UniProt P05387, whole entry: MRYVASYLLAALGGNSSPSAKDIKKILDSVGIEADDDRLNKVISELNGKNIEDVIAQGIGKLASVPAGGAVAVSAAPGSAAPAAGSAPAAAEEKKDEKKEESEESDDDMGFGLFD
UniProt O95873: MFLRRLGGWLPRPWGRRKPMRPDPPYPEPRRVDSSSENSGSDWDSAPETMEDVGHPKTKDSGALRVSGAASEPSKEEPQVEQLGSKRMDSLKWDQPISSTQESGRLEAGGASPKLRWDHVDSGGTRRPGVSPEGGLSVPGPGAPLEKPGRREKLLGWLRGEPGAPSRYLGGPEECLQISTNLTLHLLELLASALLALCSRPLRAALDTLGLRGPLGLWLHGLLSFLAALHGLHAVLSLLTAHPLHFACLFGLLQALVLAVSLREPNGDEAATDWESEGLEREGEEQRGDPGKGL
UniProt P06753, whole entry: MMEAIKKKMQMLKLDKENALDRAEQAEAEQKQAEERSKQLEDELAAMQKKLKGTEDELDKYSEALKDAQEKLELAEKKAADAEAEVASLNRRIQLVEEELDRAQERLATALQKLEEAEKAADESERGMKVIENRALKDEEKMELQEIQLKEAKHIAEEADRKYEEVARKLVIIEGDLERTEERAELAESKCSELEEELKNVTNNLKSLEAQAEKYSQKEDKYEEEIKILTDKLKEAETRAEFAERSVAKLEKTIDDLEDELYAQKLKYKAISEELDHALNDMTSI
UniProt P16402, whole entry: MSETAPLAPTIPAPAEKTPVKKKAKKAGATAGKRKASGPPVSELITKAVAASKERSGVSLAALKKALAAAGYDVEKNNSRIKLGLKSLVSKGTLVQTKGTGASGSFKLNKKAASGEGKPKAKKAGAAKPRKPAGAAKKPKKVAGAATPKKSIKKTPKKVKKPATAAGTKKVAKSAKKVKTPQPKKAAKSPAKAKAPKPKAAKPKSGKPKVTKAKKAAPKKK
UniProt P13804: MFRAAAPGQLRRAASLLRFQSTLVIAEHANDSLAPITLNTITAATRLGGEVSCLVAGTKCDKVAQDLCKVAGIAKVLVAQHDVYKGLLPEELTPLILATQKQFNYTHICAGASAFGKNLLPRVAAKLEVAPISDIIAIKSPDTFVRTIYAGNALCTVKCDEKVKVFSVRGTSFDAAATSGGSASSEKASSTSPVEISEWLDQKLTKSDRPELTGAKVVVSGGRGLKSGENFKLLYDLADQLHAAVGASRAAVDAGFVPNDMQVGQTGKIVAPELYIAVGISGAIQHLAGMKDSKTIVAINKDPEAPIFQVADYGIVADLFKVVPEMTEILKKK
UniProt P09382, whole entry: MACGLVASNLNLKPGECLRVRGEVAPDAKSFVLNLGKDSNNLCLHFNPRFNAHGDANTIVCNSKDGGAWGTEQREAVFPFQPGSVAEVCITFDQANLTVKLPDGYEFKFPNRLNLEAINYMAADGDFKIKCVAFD
UniProt P06396, whole entry: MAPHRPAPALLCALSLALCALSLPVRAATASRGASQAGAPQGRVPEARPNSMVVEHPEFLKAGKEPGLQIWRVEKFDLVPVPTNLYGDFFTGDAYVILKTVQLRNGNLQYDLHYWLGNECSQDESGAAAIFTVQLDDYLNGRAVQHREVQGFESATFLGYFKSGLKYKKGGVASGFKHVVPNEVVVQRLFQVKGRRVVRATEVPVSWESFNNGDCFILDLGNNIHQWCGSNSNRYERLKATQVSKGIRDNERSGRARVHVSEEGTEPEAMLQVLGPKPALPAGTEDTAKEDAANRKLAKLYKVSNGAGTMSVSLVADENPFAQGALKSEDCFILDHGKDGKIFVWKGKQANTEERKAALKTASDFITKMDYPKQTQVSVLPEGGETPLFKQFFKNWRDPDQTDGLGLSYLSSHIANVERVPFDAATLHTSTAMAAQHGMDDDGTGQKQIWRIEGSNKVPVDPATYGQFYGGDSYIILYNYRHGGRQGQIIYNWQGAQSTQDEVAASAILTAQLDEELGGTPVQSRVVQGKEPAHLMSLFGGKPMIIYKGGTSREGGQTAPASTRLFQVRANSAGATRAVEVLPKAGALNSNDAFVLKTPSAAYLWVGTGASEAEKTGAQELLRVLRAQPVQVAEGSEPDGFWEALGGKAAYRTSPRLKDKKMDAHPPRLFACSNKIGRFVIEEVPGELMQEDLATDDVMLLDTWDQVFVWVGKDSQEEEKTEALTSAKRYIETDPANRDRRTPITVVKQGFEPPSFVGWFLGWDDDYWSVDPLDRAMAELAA
UniProt P09132: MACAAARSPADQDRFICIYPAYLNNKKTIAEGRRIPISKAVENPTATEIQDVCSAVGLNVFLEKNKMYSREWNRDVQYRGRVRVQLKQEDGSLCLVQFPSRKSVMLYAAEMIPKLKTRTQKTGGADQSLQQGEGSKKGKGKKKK
UniProt P14209: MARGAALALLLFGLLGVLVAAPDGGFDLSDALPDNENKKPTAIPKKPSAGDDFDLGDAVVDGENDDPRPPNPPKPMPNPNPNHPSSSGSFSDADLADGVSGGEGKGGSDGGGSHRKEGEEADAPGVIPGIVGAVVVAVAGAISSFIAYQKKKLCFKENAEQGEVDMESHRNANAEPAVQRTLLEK
UniProt P08240: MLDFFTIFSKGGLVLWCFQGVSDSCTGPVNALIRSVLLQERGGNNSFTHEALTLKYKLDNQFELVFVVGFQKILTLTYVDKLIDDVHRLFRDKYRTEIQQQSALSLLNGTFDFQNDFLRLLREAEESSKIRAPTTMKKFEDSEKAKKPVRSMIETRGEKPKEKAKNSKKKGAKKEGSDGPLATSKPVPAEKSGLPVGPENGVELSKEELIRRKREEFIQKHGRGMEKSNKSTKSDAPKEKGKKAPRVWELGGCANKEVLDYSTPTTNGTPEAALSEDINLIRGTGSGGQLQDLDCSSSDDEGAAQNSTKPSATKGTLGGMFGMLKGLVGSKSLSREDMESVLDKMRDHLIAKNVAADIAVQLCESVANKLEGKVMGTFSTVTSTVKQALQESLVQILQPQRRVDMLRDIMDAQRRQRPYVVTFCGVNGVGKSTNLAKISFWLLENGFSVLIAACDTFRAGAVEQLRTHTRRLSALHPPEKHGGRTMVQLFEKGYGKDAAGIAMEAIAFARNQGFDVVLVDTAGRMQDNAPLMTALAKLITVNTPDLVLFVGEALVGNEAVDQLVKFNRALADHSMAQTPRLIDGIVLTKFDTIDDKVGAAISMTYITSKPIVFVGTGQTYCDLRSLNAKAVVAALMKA
UniProt P10398: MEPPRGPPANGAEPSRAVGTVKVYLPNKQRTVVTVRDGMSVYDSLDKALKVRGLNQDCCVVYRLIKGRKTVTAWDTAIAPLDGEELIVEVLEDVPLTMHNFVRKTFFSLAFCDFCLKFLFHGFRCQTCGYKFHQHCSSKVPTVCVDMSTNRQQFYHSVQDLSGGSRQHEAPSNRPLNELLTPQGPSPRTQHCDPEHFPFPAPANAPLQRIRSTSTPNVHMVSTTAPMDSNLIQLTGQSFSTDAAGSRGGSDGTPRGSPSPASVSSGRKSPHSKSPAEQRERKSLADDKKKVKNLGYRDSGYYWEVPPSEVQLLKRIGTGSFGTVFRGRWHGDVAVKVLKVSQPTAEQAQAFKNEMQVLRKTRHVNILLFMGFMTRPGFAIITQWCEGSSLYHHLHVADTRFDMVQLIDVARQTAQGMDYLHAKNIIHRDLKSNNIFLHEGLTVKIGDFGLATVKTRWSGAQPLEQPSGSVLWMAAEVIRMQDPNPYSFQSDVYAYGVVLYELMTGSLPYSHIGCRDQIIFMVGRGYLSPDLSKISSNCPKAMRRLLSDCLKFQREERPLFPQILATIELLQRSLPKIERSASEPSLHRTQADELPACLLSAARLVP
UniProt P13797: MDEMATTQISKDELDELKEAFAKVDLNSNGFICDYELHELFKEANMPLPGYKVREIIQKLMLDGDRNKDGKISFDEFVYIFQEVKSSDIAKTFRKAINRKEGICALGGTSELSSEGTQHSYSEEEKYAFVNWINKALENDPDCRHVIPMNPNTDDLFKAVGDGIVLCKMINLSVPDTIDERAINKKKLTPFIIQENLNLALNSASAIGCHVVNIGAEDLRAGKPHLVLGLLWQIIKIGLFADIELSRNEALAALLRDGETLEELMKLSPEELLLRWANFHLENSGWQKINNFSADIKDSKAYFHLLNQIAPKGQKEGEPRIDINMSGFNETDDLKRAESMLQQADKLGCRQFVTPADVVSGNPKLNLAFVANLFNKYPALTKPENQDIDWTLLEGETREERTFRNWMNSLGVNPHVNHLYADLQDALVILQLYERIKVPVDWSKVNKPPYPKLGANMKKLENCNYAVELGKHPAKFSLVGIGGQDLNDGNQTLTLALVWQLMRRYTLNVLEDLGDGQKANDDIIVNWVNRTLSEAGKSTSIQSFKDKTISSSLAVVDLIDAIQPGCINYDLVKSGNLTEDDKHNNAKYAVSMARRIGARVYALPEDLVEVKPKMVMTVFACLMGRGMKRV
UniProt P16455, whole entry: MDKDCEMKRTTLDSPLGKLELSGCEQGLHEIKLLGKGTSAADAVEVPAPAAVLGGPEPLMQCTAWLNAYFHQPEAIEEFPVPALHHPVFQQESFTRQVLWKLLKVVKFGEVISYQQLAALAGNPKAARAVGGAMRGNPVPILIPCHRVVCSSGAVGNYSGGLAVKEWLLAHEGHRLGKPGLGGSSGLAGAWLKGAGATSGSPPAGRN
UniProt P09622, whole entry: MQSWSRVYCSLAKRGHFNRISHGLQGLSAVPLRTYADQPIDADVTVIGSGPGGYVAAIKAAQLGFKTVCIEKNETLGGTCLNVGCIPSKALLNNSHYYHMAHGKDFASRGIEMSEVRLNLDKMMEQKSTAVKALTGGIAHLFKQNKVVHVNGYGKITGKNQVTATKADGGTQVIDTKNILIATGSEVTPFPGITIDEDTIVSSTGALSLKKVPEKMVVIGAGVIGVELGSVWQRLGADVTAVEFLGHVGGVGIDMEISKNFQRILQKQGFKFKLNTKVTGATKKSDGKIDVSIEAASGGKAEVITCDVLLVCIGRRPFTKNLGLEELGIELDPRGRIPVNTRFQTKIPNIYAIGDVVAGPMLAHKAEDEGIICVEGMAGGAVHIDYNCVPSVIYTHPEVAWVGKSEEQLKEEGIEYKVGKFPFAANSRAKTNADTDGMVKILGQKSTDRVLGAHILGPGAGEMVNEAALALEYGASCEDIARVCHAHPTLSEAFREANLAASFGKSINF
UniProt P12074, whole entry: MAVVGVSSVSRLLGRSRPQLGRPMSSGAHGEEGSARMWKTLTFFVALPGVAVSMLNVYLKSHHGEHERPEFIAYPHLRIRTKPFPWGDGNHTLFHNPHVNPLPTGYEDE
UniProt P05771, whole entry, looked up: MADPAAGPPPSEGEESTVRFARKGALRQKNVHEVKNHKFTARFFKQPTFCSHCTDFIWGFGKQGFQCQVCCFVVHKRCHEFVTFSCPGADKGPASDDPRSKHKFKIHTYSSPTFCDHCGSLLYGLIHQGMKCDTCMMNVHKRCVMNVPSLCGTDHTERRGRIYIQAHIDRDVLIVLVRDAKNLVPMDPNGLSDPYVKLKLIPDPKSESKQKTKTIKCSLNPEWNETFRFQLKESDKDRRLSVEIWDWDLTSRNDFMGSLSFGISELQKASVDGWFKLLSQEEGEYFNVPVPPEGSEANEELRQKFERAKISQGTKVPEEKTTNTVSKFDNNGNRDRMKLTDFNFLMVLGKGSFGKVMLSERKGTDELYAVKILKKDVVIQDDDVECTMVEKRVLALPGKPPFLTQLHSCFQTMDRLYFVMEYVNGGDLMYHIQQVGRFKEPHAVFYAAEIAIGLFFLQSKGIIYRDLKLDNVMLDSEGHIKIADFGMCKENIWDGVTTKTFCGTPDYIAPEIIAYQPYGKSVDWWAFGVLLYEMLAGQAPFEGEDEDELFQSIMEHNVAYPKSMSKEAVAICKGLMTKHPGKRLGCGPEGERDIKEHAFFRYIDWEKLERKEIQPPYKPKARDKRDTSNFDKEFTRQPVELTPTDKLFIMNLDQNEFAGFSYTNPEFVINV
UniProt O96006: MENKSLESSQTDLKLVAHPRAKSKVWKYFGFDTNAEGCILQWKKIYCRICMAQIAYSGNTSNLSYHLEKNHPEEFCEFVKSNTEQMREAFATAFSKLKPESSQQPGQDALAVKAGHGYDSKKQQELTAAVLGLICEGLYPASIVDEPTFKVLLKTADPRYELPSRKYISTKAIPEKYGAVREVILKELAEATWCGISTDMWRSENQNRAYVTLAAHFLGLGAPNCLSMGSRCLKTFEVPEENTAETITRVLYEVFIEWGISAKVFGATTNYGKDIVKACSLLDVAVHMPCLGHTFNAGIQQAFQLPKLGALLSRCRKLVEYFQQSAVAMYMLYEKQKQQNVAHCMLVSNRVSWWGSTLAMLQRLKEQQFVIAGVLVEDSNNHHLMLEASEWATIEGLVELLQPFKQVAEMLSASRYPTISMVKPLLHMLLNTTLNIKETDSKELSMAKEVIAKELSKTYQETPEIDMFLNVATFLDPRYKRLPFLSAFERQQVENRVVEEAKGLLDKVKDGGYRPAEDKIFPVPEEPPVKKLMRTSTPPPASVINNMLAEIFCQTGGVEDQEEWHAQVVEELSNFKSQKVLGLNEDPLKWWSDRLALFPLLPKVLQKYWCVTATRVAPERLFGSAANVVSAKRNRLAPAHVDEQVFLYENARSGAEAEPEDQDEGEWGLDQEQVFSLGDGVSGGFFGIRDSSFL

Target	NP40-soluble protein abundance
RPLP2 (UniProt P05387)	0.999 ± 0.17
C6orf47 (UniProt O95873)	0.989 ± 0.17
CYBA (UniProt P13498)	0.997 ± 0.056
UniProt P06753-2|P06753-3|P06753-5|P06753-6|J3KN67	0.825 ± 0.18
UniProt P06126	0.993 ± 0.031
ETS1 (UniProt P14921)	0.996 ± 0.019
HIST1H1D (UniProt P16402)	0.919 ± 0.071
ETFA (UniProt P13804)	0.985 ± 0.023

Same assay, conditions: concentration: 0.5mM

Target	NP40-soluble protein abundance
PRKAR2A (UniProt P13861)	1 ± 0.041
LGALS1 (UniProt P09382)	1.004 ± 0.0086
UniProt P06396-2	1.25 ± 0.048
UniProt P09564	0.976 ± 0.055
UniProt P09132 and related entries	0.968 ± 0.018
BPGM (UniProt P07738)	0.992 ± 0.024
UniProt P14151 and related entries	0.965 ± 0.065
HIST1H1B (UniProt P16401)	1.02 ± 0.1
O96007 and related entries (UniProt O96033+O96007)	0.999 ± 0.019
CYC1 (UniProt P08574)	1 ± 0.018
UniProt P14209 and related entries	0.908 ± 0.14
NUDT14 (UniProt O95848)	1 ± 0.13
UniProt P09543-2	1.18 ± 0.055
UniProt P08240	1.04 ± 0.048
UniProt P10398 and related entries	1.34 ± 0.13
FBXO45 (UniProt P0C2W1)	0.967 ± 0.066
UniProt P14324-2	0.992 ± 0.036
TSPAN13 (UniProt O95857)	0.814 ± 0.11
FTH1 (UniProt P02794)	0.963 ± 0.14

Target	NP40-soluble protein abundance
PLS3 (UniProt P13797)	0.942 ± 0.0073
RAC2 (UniProt P15153)	1.02 ± 0.073
MGMT (UniProt P16455)	0.897 ± 0.12
OAT (UniProt P04181)	1.02 ± 0.028
DLD (UniProt P09622)	1.07 ± 0.052
COX6A1 (UniProt P12074)	0.88 ± 0.21
UniProt P06730 and related entries	1.05 ± 0.033
UniProt P05771-2|P05771	1.05 ± 0.067
ZBED1 (UniProt O96006)	0.992 ± 0.033
UniProt O95834-2|O95834-3|O95834	1.06 ± 0.073
RPLP2 (UniProt P05387)	0.952 ± 0.059
C6orf47 (UniProt O95873)	0.919 ± 0.089
CYBA (UniProt P13498)	1.02 ± 0.12
UniProt P06753-2|P06753-3|P06753-5|P06753-6|J3KN67	0.747 ± 0.26
UniProt P06126	0.907 ± 0.1
ETS1 (UniProt P14921)	0.914 ± 0.024
HIST1H1D (UniProt P16402)	1.03 ± 0.13
ETFA (UniProt P13804)	1 ± 0.052
